Some entries share one result that the patent states for a list of compounds. At least one compound was matched to its structure with a doubt left.
assay: Metabolite changes in peripheral plasma after planned MI (alcohol septal ablation), LC-MS/MS profiling; type: in vivo, human; details: transient versus persisting early changes, FIG. 3
Text: A total of 36 patients undergoing planned MI using alcohol septal ablation for the treatment of symptomatic hypertrophic obstructive cardiomyopathy (HOCM) were included. Inclusion criteria for the cohort were: 1) primary HOCM; 2) septal thickness of 16 mm or greater; 3) resting outflow tract gradient of greater than 30 mmHg, or an inducible outflow tract gradient of at least 50 mm Hg; 4) symptoms refractory to optimal medical therapy; and 5) appropriate coronary anatomy. The most proximal accessible septal branch was instrumented using standard angioplasty guiding catheters and guidewires and 1.5 or 2.0 mm×9 mm Maverick™ balloon catheters. Radiographic and echocardiographic contrast injections confirmed proper selection of the septal branch and balloon catheter position. Ethanol was infused through the balloon catheter at 1 ml per minute. Additional injections in the same or other septal branches were administered as needed, causing cessation of blood flow to the isolated myocardium, and to reduce the gradient to <20 mmHg.^16
Blood was drawn at baseline (just prior to the onset of the ablation) and at minutes, 1 hour, 2 hours, 4 hours and 24 hours following the onset of injury as depicted in FIG. 1. 13 of the 36 patients consented to the placement of a coronary sinus catheter during the ablation, allowing for the simultaneous sampling from coronary sinus and femoral catheters at the baseline, 10-minute and 1-hour time points. The coronary sinus catheter was subsequently removed prior to the patient leaving the catheterization suite.
Samples were obtained from femoral venous catheters during the procedure or, where indicated, from a catheter placed in the coronary sinus. Samples were collected in K2EDTA-treated tubes (Becton Dickinson). All blood samples were centrifuged at 2000×g for 10 minutes to pellet cellular elements. The supernatant plasma was then aliquoted and immediately frozen at −80° C. to minimize freeze-thaw degradation. Additional blood samples were sent to the clinical chemistry laboratory for evaluation of the standard cardiac markers creatine kinase (CK), CK-MB, and Troponin T (Roche Diagnostics).
For the analysis of sugars, ribonucleotides, and organic acids, 200 μl of plasma was subjected to ethanol precipitation (80% ethanol, 19.9% H2O, 0.1% formic acid) at 4° C. for 2 hours, centrifuged at 15000×g for 15 minutes, and the supernatant evaporated in a nitrogen-chamber at 30° C. (Caliper Life Sciences). Samples were reconstituted in 60 μl H2O, and aliquots were separated sequentially and automatically by injection onto three HPLC columns with orthogonal separation characteristics, as previously described.^10 Sugars and ribonucleotides were separated on a Luna amino column (Phenomenex) under normal phase using acetonitrile/water/0.25% ammonium hydroxide/10 mM ammonium acetate at pH 11 in a run time of 3.5 minutes. Organic acids were separated using a Synergi Polar-RP column (Phenomenex) under reverse phase using acetonitrile/water/5 mM ammonium acetate at pH 5.6-6.0 in a run time of 3.5 minutes. For the analysis of amino acids, plasma was diluted 10-fold with H2O and then subjected to reverse phase chromatography on a Luna phenyl-hexyl column (Phenomenex) using acetonitrile/water/0.1% acetic acid at pH 3.5-4.0 in a run time of 1.5 minutes.
The three HPLC columns were connected in parallel via an automated switching valve on a robotic sample loader (Leap Technologies) to a triple quadrupole mass spectrometer (AB4000Q, Applied Biosystem/Sciex), operated in electrospray ionization mode using a turbo ion spray LC/MS interface. Either positive or negative ions were selected for targeted MS/MS analysis using selective reaction monitoring (SRM) conditions. A total of 210 known metabolites were monitored for each sample. Precursor and product ions of metabolites presented in tables are detailed in Table 1, below. […]

SMILES	Duration of metabolic change in peripheral plasma after planned MI [min]
C[C@H](N)C(=O)O [Alanine]	< 120
C[N+](C)(C)CC(O)CC(=O)[O-] (stereo not drawn) [Carnitine]	≥ 240
O=CC(O)CO (stereo not drawn) [Glyceraldehyde]	≥ 240
OC[C@H]1O[C@@H](n2cnc3c(O)ncnc32)[C@H](O)[C@@H]1O [Inosine]	< 120
O=C(O)CC(=O)O [Malonic Acid]	< 120
C[C@@H](O)[C@H](N)C(=O)O [Threonine]	≥ 240
O=c1[nH]c(=O)c2[nH]cnc2[nH]1 [Xanthine]	< 120
O=C(O)C=C(CC(=O)O)C(=O)O [aconitic acid]	≥ 240
CNCC(O)c1ccc(O)c(OC)c1 (stereo not drawn) [metanephrine]	≥ 240

From US20090269796A1, “METHODS OF DETECTING AND TREATING MYOCARDIAL ISCHEMIA AND MYOCARDIAL INFARCTION” (THE GENERAL HOSPITAL CORPORATION, priority 2007, published 2009)
